Data taken from patent US20220008409A1, “CANCER COMBINATION THERAPY USING QUINOLINE CARBOXAMIDE DERIVATIVE” (KABUSHIKI KAISHA YAKULT HONSHA, priority 2018, published 2022).
At least one structure is not confirmed: it was looked up by name or label, or the drawing left a doubt. Some entries repeat one wording, which the source may state once for all of them.

Test: Combination effect by median-effect method, summary over the cell lines of Example 1
Assay type: cell-based
Details: in combination with STX-1159; summary of Table 5
Description: The fraction affected (hereinafter, abbreviated as fa) was calculated from the following expression: fa=1-(viable cell count in agent exposure group)/(viable cell count in control group). […] Evaluation of the combination effect was based on grading by CI in Table 4. In calculation of CI, the average of the values from two or more experiments was employed.

Compound	combination effect by the median-effect method
Cc1nc(Nc2ncc(C(=O)Nc3c(C)cccc3Cl)s2)cc(N2CCN(CCO)CC2)n1 [Dasatinib, dasatinib]	synergetic effect
CC(=O)Nc1cccc(-n2c(=O)n(C3CC3)c(=O)c3c(Nc4ccc(I)cc4F)n(C)c(=O)c(C)c32)c1 [Trametinib, trametinib]	synergetic effect
COc1cc2c(Nc3ccc(Br)cc3F)ncnc2cc1OCC1CCN(C)CC1 [Vandetanib, vandetanib]	synergetic effect
